In publication PMC10564737, “Structure-based design of a phosphotyrosine-masked covalent ligand targeting the E3 ligase SOCS2” (Nature Communications, 2023):
“And” between values parts separate entries of the source, which are not always exact repeats. Equal entries are not always repeated. Further values from the same series stand in other lists.

By UniProt entry, the sequences of proteins in these tests, tags left out. Residues count along the entry.
UniProt O14508, 32-198: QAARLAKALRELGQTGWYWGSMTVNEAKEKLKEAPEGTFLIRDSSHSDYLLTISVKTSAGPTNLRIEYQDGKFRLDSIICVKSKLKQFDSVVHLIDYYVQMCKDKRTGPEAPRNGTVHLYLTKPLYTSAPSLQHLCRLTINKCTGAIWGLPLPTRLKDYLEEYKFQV

Biological target: T1, SBC2 (Homo sapiens, UniProt O14508)
T1 construct: SOCS2 (amino acids 32–198); His6 (N, cleaved yes); made in house; host or cells: E. coli BL21(DE3)
Assay: Covalent fluorescence polarization (FP) probe displacement assay
Assay type: binding
Description: With the specific covalent modification of Cys111 established, we decided to fully characterize MN551 as a covalent SOCS2 inhibitor. […] (Fig. 2g, h, Supplementary Fig. 9). Due to the covalent nature of the competing inhibitor, a time-dependent reduction in the fraction of protein-bound probe is observed. […] This value illustrates reasonable specificity for a covalent inhibitor, with nonetheless scope for future optimization. In addition to characterizing the kinetic covalency parameters, we have also assessed the stability of the MN551 by monitoring its reactivity (half-life >70 min) with reduced glutathione (GSH) (Supplementary Fig. 10)[35].
To monitor the SBC2-ligand binding kinetics we designed a fluorescein-labeled small-molecule probe - compound 26. The fluorescence polarization (anisotropy) of a threefold serial dilution of 50 µM SBC2 in 10 nM of the probe in 100 mM HEPES pH 7.5, 50 mM NaCl, 0.5 mM TCEP, 2% DMSO was measured to determine the KL (Supplementary Fig. 9A) (BMG Labtech PHERAstar – firmware v1.33). Protein titration and the curves were fitted using GraphPad Prism 9, using one-site fitting models to determine the probe binding constant, KL. Samples were run in triplicate in 384 well plates, using a total volume per well of 16 μL. The bound fraction of the probe is measure using the equation:1 Fb=Af−A/Af−Ab Where,
A time-dependent reduction in probe anisotropy were measured for a 2-fold serial dilution of […] compound MN551 in 10 nM probe +300 μM SBC2. To determine the initial reversible binding affinity, the initial bound fraction of the probe at time = 0, Fbo (the y-intercept in Fb v/s Time plot, Supplementary Fig. 9B) was plotted against MN551 concentration, and the obtained IC50 is then converted to Ki (Supplementary Fig. 9C)[17]. The slope from Fb versus time graph when divided by Fbo gives rate of covalency, kobs. A plot of kobs v/s MN551 concentration using Michaelis–Menten model of GraphPad Prism 9, provides the parameters kinact (maximum potential rate of inactivation) and KI (concentration of MN551 at which kobs = kinact/2) (Supplementary Fig. 9D, E).
The observed first-order rate constant, kobs is related to KI and kinact by the equation:2 kobs=kinactI/KI+I
At [I]«[KI] the above equation is converted to3 […]
The slope from the plot of kobs against concentration of MN551 gives us the covalent efficiency parameter kinact/KI (Supp Fig. 9F)[30],[33].

[1] = MN551 25000 nM; Cycle 10 (45 min)
[2] = MN551 25000 nM; Cycle 11 (50 min)
[3] = MN551 25000 nM; Cycle 13 (60 min); n=1
[4] = MN551 25000 nM; Cycle 14 (65 min); n=1
[5] = MN551 25000 nM; Cycle 15 (70 min); n=1
[6] = MN551 25000 nM; Cycle 16 (75 min); n=1
[7] = MN551 25000 nM; Cycle 17 (80 min); n=1
[8] = MN551 50000 nM; Cycle 7 (30 min)
[9] = MN551 50000 nM; Cycle 8 (35 min)
[10] = MN551 50000 nM; Cycle 9 (40 min)
[11] = MN551 50000 nM; Cycle 10 (45 min)
[12] = MN551 50000 nM; Cycle 11 (50 min)
[13] = MN551 50000 nM; Cycle 13 (60 min); n=1
[14] = MN551 50000 nM; Cycle 14 (65 min); n=1
[15] = MN551 50000 nM; Cycle 15 (70 min); n=1
[16] = MN551 50000 nM; Cycle 16 (75 min); n=1
[17] = MN551 50000 nM; Cycle 17 (80 min); n=1
[18] = MN551 100000 nM; Cycle 8 (35 min)
[19] = MN551 100000 nM; Cycle 9 (40 min)
[20] = MN551 100000 nM; Cycle 10 (45 min)
[21] = MN551 100000 nM; Cycle 11 (50 min)
[22] = MN551 100000 nM; Cycle 13 (60 min); n=1
[23] = MN551 100000 nM; Cycle 14 (65 min); n=1
[24] = MN551 100000 nM; Cycle 15 (70 min); n=1
[25] = MN551 100000 nM; Cycle 16 (75 min); n=1
[26] = MN551 100000 nM; Cycle 17 (80 min); n=1

Structure (SMILES): O=C(CCl)Nc1cccc(CNC(=O)[C@H](Cc2ccc(OP(=O)(O)O)cc2)NC(=O)Cc2ccc(F)cc2)c1 [MN551]
- Anisotropy based on Raw Data (485) [1]: 179.1 and 180.2 and 176.3
- Anisotropy data 485,520,520 [1]: 182.9 and 178.7 and 181.7
- Anisotropy [2]: 177.2 and 179.6 and 175.9
- Anisotropy based on Raw Data (485) [2]: 178.1 and 177.2 and 175.1
- Anisotropy data 485,520,520 [2]: 182.7 and 179.2 and 179.8
- Anisotropy (MN551 25000 nM; Cycle 12 (55 min); n=1): 177.3 and 177.9 and 177.6
- Anisotropy [3]: 176.7 and 177.8 and 178.2
- Anisotropy based on Raw Data (485) [3]: 177.7 and 176.9 and 174
- Anisotropy [4]: 176.4 and 175.6 and 177.3
- Anisotropy based on Raw Data (485) [4]: 174 and 174.6 and 175.5
- Anisotropy [5]: 174.6 and 173 and 176.3
- Anisotropy based on Raw Data (485) [5]: 173.3 and 172.8 and 172.7
- Anisotropy [6]: 175 and 173.3 and 175.5
- Anisotropy based on Raw Data (485) [6]: 173.6 and 172.7 and 171.2
- Anisotropy [7]: 172.1 and 171.5 and 169.5
- Anisotropy based on Raw Data (485) [7]: 171.4 and 170.6 and 170.9
- Anisotropy data 485,520,520 (MN551 25000 nM; Cycle 20 (95 min); n=1): 169.7 and 168.6 and 169.2
- Fb (MN551 50000 nM, Cycle 7 (30 min)): 0.03791 and 0.07075 and 0.06918
- Anisotropy based on Raw Data (485) (MN551 50000 nM, Cycle 12 (55 min)): 177.6 and 172.1 and 175.1
- Anisotropy (MN551 50000 nM, Cycle 14 (65 min), n=1): 173.4 and 172 and 172.2
- Anisotropy (MN551 50000 nM, Cycle 15 (70 min), n=1): 172.5 and 171.1 and 170.2
- Anisotropy (MN551 50000 nM, Cycle 16 (75 min), n=1): 169.5 and 170.8 and 170.4
- Anisotropy (MN551 50000 nM, Cycle 18 (85 min), n=1): 167.8 and 169.8 and 170.4
- Fb, fraction bound (MN551 50000 nM; Cycle 6 (25 min)): 0.05203 and 0.06084 and 0.05571
- Anisotropy data 485,520,520 [8]: 181.3 and 180.8 and 182.9
- Fb [8]: 0.06938 and 0.08999 and 0.09318
- Anisotropy [9]: 176.5 and 176.7 and 179.9
- Anisotropy data 485,520,520 [9]: 181.4 and 180.1 and 181.9
- Anisotropy [10]: 175.1 and 176.8 and 175
- Anisotropy based on Raw Data (485) [10]: 178.2 and 175.8 and 177.9
- Anisotropy data 485,520,520 [10]: 179.4 and 179.3 and 176.9
- Anisotropy [11]: 175.1 and 173.9 and 177.8
- Anisotropy based on Raw Data (485) [11]: 177.1 and 175.3 and 177.7
- Anisotropy data 485,520,520 [11]: 177.6 and 176.4 and 178.8
- Anisotropy [12]: 173.8 and 175.5 and 177
- Anisotropy based on Raw Data (485) [12]: 176.8 and 174.1 and 174.6
- Anisotropy data 485,520,520 [12]: 177.8 and 172.8 and 175.8
- Anisotropy (MN551 50000 nM; Cycle 12 (55 min); n=1): 174 and 176.4 and 177
- Anisotropy (MN551 50000 nM; Cycle 13 (60 min)): 173.3 and 170.9 and 173
- Anisotropy [13]: 174.5 and 172.6 and 174.8
- Anisotropy based on Raw Data (485) [13]: 175.6 and 171.5 and 173.7
- Anisotropy [14]: 175.6 and 173.5 and 174.3
- Anisotropy based on Raw Data (485) [14]: 173 and 172.1 and 171.1
- Anisotropy [15]: 175.4 and 171.4 and 175.7
- Anisotropy based on Raw Data (485) [15]: 173.8 and 170.7 and 170.9
- Anisotropy [16]: 172.4 and 172.3 and 175
- Anisotropy based on Raw Data (485) [16]: 173.8 and 169.4 and 170.1
- Anisotropy [17]: 172.3 and 170.4 and 170.3
- Anisotropy based on Raw Data (485) [17]: 173.1 and 170 and 171.2
- Anisotropy data 485,520,520 (MN551 50000 nM; Cycle 20 (95 min); n=1): 167.1 and 168.5 and 168.8
- Anisotropy based on Raw Data (485) (MN551 100000 nM, Cycle 12 (55 min)): 176.2 and 174.8 and 177.2
- Anisotropy (MN551 100000 nM, Cycle 14 (65 min), n=1): 175.7 and 173.6 and 173.5
- Anisotropy (MN551 100000 nM, Cycle 15 (70 min), n=1): 174.3 and 172.1 and 173.7
- Anisotropy (MN551 100000 nM, Cycle 16 (75 min), n=1): 173.6 and 171.3 and 171.5
- Anisotropy (MN551 100000 nM, Cycle 18 (85 min), n=1): 170 and 172.3 and 169
- Fb, fraction bound (MN551 100000 nM; Cycle 4 (15 min)): 0.0295 and 0.05292 and 0.03291
- Anisotropy data 485,520,520 (MN551 100000 nM; Cycle 7 (30 min)): 177.5 and 179.4 and 179.5
- Anisotropy [18]: 178.3 and 177.4 and 176.7
- Anisotropy data 485,520,520 [18]: 179.5 and 176.8 and 180.3
- Anisotropy [19]: 176.5 and 176.6 and 177.6
- Anisotropy based on Raw Data (485) [19]: 177.8 and 174.7 and 177.2
- Anisotropy data 485,520,520 [19]: 176.8 and 177.8 and 177.3
- Anisotropy [20]: 177.9 and 175.4 and 175.6
- Anisotropy based on Raw Data (485) [20]: 177.5 and 174.6 and 176.3
- Anisotropy data 485,520,520 [20]: 177.8 and 176.8
- Anisotropy [21]: 175.3 and 174.1 and 176.7
- Anisotropy based on Raw Data (485) [21]: 175.9 and 174.6 and 177.5
- Anisotropy data 485,520,520 [21]: 175.2 and 178.3 and 179.1
- Anisotropy (MN551 100000 nM; Cycle 12 (55 min); n=1): 175.2 and 177.8 and 176.4
- Anisotropy (MN551 100000 nM; Cycle 13 (60 min)): 176.1 and 173.8 and 174.4
- Anisotropy [22]: 175.9 and 175 and 176.8
- Anisotropy based on Raw Data (485) [22]: 175.1 and 171.7 and 174.9
- Anisotropy [23]: 176.7 and 176.9 and 175.2
- Anisotropy based on Raw Data (485) [23]: 174.9 and 172.2 and 172.6
- Anisotropy [24]: 172.5 and 174.8 and 174.1
- Anisotropy based on Raw Data (485) [24]: 173.6 and 171.9 and 173.7
- Anisotropy [25]: 173.2 and 173.6 and 174.8
- Anisotropy based on Raw Data (485) [25]: 174.9 and 172.9 and 173.1
- Anisotropy [26]: 173 and 167.6
- Anisotropy based on Raw Data (485) [26]: 173.3 and 171 and 173.1
- Anisotropy data 485,520,520 (MN551 100000 nM; Cycle 20 (95 min); n=1): 172.6 and 168.6 and 170.5
